Measurements published in PMC5430690.
For some of these results: A negative result means that nothing was seen under these conditions. For some of these results: At least one verdict rests on a figure or table, not on a statement of the authors. For some of these results: The exact form of at least one protein or probe is not confirmed.

The chains behind the UniProt entries cited, without tags or fusion partners. Residues count along the entry.
UniProt P02769, 25-607: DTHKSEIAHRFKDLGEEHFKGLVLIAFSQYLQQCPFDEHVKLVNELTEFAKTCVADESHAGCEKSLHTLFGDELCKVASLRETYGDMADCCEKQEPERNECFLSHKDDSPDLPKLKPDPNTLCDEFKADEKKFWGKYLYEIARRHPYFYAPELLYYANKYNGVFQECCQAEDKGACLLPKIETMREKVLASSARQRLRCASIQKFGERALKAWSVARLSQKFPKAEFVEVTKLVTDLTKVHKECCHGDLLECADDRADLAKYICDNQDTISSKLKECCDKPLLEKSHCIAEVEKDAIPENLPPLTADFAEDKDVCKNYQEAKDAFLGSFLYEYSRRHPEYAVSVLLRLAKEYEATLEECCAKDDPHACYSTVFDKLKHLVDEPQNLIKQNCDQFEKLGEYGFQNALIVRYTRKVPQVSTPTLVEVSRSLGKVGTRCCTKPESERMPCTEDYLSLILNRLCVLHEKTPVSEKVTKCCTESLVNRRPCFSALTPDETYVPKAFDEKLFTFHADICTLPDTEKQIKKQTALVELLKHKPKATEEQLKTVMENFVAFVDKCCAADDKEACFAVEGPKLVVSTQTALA

Legend:
[1] = tested on: glycated hemoglobin HbA1c; test: EIS; conditions: HbA1c on gold electrode; 30 min, 0-200 nM aptamer on protein-modified gold electrodes; EIS read-out in 5 mM [Fe(CN)6]3-/4-; commercial protein; single-stranded DNA
[2] = tested on: hemoglobin Hb (non-glycated + used as tHb); test: EIS; conditions: Hb on gold electrode, NB up to 200 nM aptamer; 30 min, 0-200 nM aptamer on protein-modified gold electrodes; EIS read-out in 5 mM [Fe(CN)6]3-/4-; commercial protein; single-stranded DNA
[3] = target: BSA (UniProt P02769); test: EIS; conditions: specificity control; 30 min, 0-200 nM aptamer on protein-modified gold electrodes; EIS read-out in 5 mM [Fe(CN)6]3-/4-; commercial protein; single-stranded DNA
[4] = target: BSA (UniProt P02769); test: square wave voltammetry; conditions: aptamer on AuNP electrode; 5' HS-(CH2)6; 30 min, 0-200 nM aptamer on protein-modified gold electrodes; EIS read-out in 5 mM [Fe(CN)6]3-/4-; commercial protein; single-stranded DNA
[5] = tested on: hemoglobin Hb (non-glycated + used as tHb); test: square wave voltammetry; conditions: aptamer on AuNP electrode, LOD 0.34 ng/mL; 5' HS-(CH2)6; 30 min, 0-200 nM aptamer on protein-modified gold electrodes; EIS read-out in 5 mM [Fe(CN)6]3-/4-; commercial protein; single-stranded DNA
[6] = tested on: glycated hemoglobin HbA1c; test: square wave voltammetry; conditions: aptamer on AuNP electrode, LOD 0.2 ng/mL; 5' HS-(CH2)6; 30 min, 0-200 nM aptamer on protein-modified gold electrodes; EIS read-out in 5 mM [Fe(CN)6]3-/4-; commercial protein; single-stranded DNA

## CGACACCAGCACACAGACCCGAGACACACGTCAGATCAACAGCGACCGTATCATTGGTTG [G11]
[1]
  Kd: 108 nM
[2]
  binding result: no binding

## GGACACGGCAAAGGGGTATAGCCTACCGGACCGTGGACATGGAATTGTGTGCTGCGTGG [G23]
[1]
  Kd: 303 nM
[2]
  binding result: no binding

## GGGGACACAGCAACACACCCACCCACCAGCCCCAGCATCATGCCCATCCGTCGTGTGTG [G20]
[3]
  binding result: no binding
[2]
  binding result: no binding

## GGCCACAGCAGCCAGTACACCCACCCACCAGCCCCGTCAACGACCTGAACCTGCCCTGTGTG [G18]
[1]
  Kd: 95 nM
[2]
  binding result: no binding

## ACGCACACCAGAGACAAGTAGCCCCCCAAACGCGGCCACGGAACGCAGCACCTCCATGGC [G15]
[3]
  binding result: no binding

## ACGCACACCAGAGACAAGTAGCCCCCCAAACGCGGCCACGGAACGCAGCACCTCCATGGC [thiol-G15]
[4]
  binding result: no binding
[5]
  binding result: binds

## GGGGACACAGCAACACACCCACCCACCAGCCCCAGCATCATGCCCATCCGTCGTGTGTG [thiol-G20]
[4]
  binding result: no binding
[6]
  binding result: binds
